Data as given in PubChem BioAssay AID1259279 (Sanger Institute, 2017)
Screen: 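Find kinases whose loss works with colorectal cancer drugs to kill cells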 (primary screen). Cells: LS180 human colorectal cancer cells. Knock-down reagent: siRNA pool against human genes. Challenge: anchor drug BYL719 at 1 µM, cetuximab at 5 µg/ml or trametinib at 10 nM, or DMSO vehicle only. Read-out: 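Viability as a fraction of non-targeting control and as a replicate-averaged robust z-score, with separate synergy scores for BYL719, cetuximab and trametinib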. Scale: viability z-score, no drug: higher = more viable cells after knock-down; viability, no drug: higher = more viable cells; synergy score with BYL719 and synergy score with cetuximab: higher = stronger synthetic lethal synergy with drug. Hit rule: 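Essential (active) calls need a no-drug viability z-score lower than -3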. Meaning of the calls: active = essential (knock-down alone cuts viability); inactive = no change without drug.
In all, the deposit lists 794 reagents; shown is a part drawn at random. In the full data, 11 (1.4%) are marked active. 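Calls reflect knock-down alone in the vehicle arm, not drug synergy.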 No viability above 1 is reported: the scale is capped. Not all columns of the deposit are shown. The record does not give: the amount of reagent, the time to read-out.

| target gene | viability z-score, no drug | viability, no drug (fraction) | synergy score with BYL719 | synergy score with cetuximab | Outcome |
| --- | --- | --- | --- | --- | --- |
| CDK9 (cyclin dependent kinase 9) | 0.86 | 1 | -0.0593 | 0.0238 | inactive |
| PRKCB (protein kinase C beta) | -1.64 | 0.727 | -0.176 | 0.0418 | inactive |
| CTCF (CCCTC-binding factor) | -3.01 | 0.578 | -0.145 | -0.136 | active |
| TAOK1 (TAO kinase 1) | 0.86 | 1 | -0.00742 | -0.0786 | inactive |
| ADCK5 (aarF domain containing kinase 5) | 0.187 | 0.927 | -0.211 | -0.222 | inactive |
| MAGI1 | -1.32 | 0.762 | -0.131 | -0.1 | inactive |
| CDK20 (cyclin dependent kinase 20) | 0.371 | 0.947 | 0.0958 | 0.14 | inactive |
| TK2 (thymidine kinase 2) | 0.673 | 0.98 | -0.218 | 0.032 | inactive |
| FN3KRP (fructosamine 3 kinase related protein) | -1.97 | 0.691 | 0.0265 | 0.118 | inactive |
| MAP2K7 (mitogen-activated protein kinase kinase 7) | -1.53 | 0.74 | -0.104 | -0.111 | inactive |
| EFNA3 (ephrin A3) | 0.86 | 1 | 0.0537 | -0.0933 | inactive |
| PRKAA1 (protein kinase AMP-activated catalytic subunit alpha 1) | -0.662 | 0.834 | -0.02 | 0.0498 | inactive |
| RIOK3 (RIO kinase 3) | 0.86 | 1 | -0.00247 | -0.00632 | inactive |
| MAP2K5 (mitogen-activated protein kinase kinase 5) | 0.86 | 1 | -0.119 | -0.163 | inactive |
| PIK3CB | -0.968 | 0.801 | -0.0774 | -0.137 | inactive |
| PDK4 (pyruvate dehydrogenase kinase 4) | 0.42 | 0.952 | 0.0902 | -0.00574 | inactive |
| MAP3K19 (mitogen-activated protein kinase kinase kinase 19) | -0.557 | 0.846 | -0.0078 | -0.0471 | inactive |
| PXK (PX domain containing serine/threonine kinase like) | -0.467 | 0.855 | -0.0632 | -0.0448 | inactive |
| CDK4 (cyclin dependent kinase 4) | 0.453 | 0.956 | -0.00398 | -0.0398 | inactive |
| FLT1 (fms related receptor tyrosine kinase 1) | 0.86 | 1 | -0.149 | -0.166 | inactive |
| PLK2 (polo like kinase 2) | 0.401 | 0.95 | -0.103 | -0.185 | inactive |
| AK4 (adenylate kinase 4) | -0.894 | 0.809 | -0.232 | -0.192 | inactive |
| RPS6KA1 (ribosomal protein S6 kinase A1) | -0.149 | 0.89 | -0.0795 | -0.067 | inactive |
| MTOR (mechanistic target of rapamycin kinase) | 0.86 | 1 | -0.0389 | -0.116 | inactive |
| CSNK1E (casein kinase 1 epsilon) | -1.2 | 0.776 | -0.0918 | -0.0156 | inactive |
| MOS (MOS proto-oncogene, serine/threonine kinase) | 0.265 | 0.935 | -0.0319 | -0.045 | inactive |
| CAMK1 (calcium/calmodulin dependent protein kinase I) | -2.39 | 0.645 | -0.0976 | -0.099 | inactive |
| MARK2 (microtubule affinity regulating kinase 2) | -0.561 | 0.845 | -0.116 | -0.0652 | inactive |
| CIT (citron rho-interacting serine/threonine kinase) | -1.49 | 0.744 | 0.0129 | -0.0653 | inactive |
| ULK2 (unc-51 like autophagy activating kinase 2) | 0.618 | 0.974 | -0.0521 | -0.0843 | inactive |
| WNK1 (WNK lysine deficient protein kinase 1) | 0.86 | 1 | 0.108 | -0.0603 | inactive |
| FGFR1 (fibroblast growth factor receptor 1) | -0.797 | 0.819 | -0.0337 | -0.171 | inactive |
| FXR1 (FMR1 autosomal homolog 1) | 0.86 | 1 | -0.119 | -0.111 | inactive |
| AK2 (adenylate kinase 2) | 0.15 | 0.923 | -0.147 | -0.062 | inactive |
| DYRK4 (dual specificity tyrosine phosphorylation regulated kinase 4) | -2.87 | 0.593 | -0.189 | -0.0719 | inactive |
| PKM (pyruvate kinase M1/2) | -0.504 | 0.851 | -0.0297 | -0.146 | inactive |
| NRBP2 (nuclear receptor binding protein 2) | 0.86 | 1 | 0.0285 | 0.0792 | inactive |
| DYRK1B | -1.2 | 0.776 | -0.1 | -0.0221 | inactive |
| NRK (Nik related kinase) | 0.86 | 1 | -0.0821 | 0.00106 | inactive |
| EPHA3 (EPH receptor A3) | -1.71 | 0.72 | -0.0308 | -0.0329 | inactive |
| FGR (FGR proto-oncogene, Src family tyrosine kinase) | -1.52 | 0.741 | -0.0476 | -0.103 | inactive |
| TEX14 (testis expressed 14, intercellular bridge forming factor) | 0.86 | 1 | 0.0402 | -0.0111 | inactive |
| PIP5K1C (phosphatidylinositol-4-phosphate 5-kinase type 1 gamma) | -1.77 | 0.713 | -0.0947 | -0.296 | inactive |
| SCYL1 (SCY1 like pseudokinase 1) | 0.86 | 1 | -0.201 | -0.166 | inactive |
| PRKAR1B (protein kinase cAMP-dependent type I regulatory subunit beta) | -2.22 | 0.664 | -0.217 | -0.154 | inactive |
| MAP2K3 (mitogen-activated protein kinase kinase 3) | -0.556 | 0.846 | -0.111 | -0.0132 | inactive |
| NME7 (NME/NM23 family member 7) | 0.86 | 1 | -0.0807 | -0.149 | inactive |
| COASY (Coenzyme A synthase) | -2.8 | 0.601 | -0.0309 | 0.189 | inactive |
| WT1 (WT1 transcription factor) | 0.86 | 1 | -0.164 | -0.166 | inactive |
| PFKL (phosphofructokinase, liver type) | 0.86 | 1 | -0.116 | -0.148 | inactive |

Reformatted: entries from further up.
{"target gene": "EFNA3 (ephrin A3)", "viability z-score, no drug": 0.86, "viability, no drug (fraction)": 1, "synergy score with BYL719": 0.0537, "synergy score with cetuximab": -0.0933, "Outcome": "inactive"}
{"target gene": "PRKAA1 (protein kinase AMP-activated catalytic subunit alpha 1)", "viability z-score, no drug": -0.662, "viability, no drug (fraction)": 0.834, "synergy score with BYL719": -0.02, "synergy score with cetuximab": 0.0498, "Outcome": "inactive"}
{"target gene": "RIOK3 (RIO kinase 3)", "viability z-score, no drug": 0.86, "viability, no drug (fraction)": 1, "synergy score with BYL719": -0.00247, "synergy score with cetuximab": -0.00632, "Outcome": "inactive"}
{"target gene": "MAP2K5 (mitogen-activated protein kinase kinase 5)", "viability z-score, no drug": 0.86, "viability, no drug (fraction)": 1, "synergy score with BYL719": -0.119, "synergy score with cetuximab": -0.163, "Outcome": "inactive"}
{"target gene": "PIK3CB", "viability z-score, no drug": -0.968, "viability, no drug (fraction)": 0.801, "synergy score with BYL719": -0.0774, "synergy score with cetuximab": -0.137, "Outcome": "inactive"}
{"target gene": "PDK4 (pyruvate dehydrogenase kinase 4)", "viability z-score, no drug": 0.42, "viability, no drug (fraction)": 0.952, "synergy score with BYL719": 0.0902, "synergy score with cetuximab": -0.00574, "Outcome": "inactive"}
{"target gene": "MAP3K19 (mitogen-activated protein kinase kinase kinase 19)", "viability z-score, no drug": -0.557, "viability, no drug (fraction)": 0.846, "synergy score with BYL719": -0.0078, "synergy score with cetuximab": -0.0471, "Outcome": "inactive"}
{"target gene": "PXK (PX domain containing serine/threonine kinase like)", "viability z-score, no drug": -0.467, "viability, no drug (fraction)": 0.855, "synergy score with BYL719": -0.0632, "synergy score with cetuximab": -0.0448, "Outcome": "inactive"}
